Data reported in PubChem BioAssay AID2685 (National Center for Advancing Translational Sciences (NCATS), 2010).
This is one part of the list. Shown are side measurements of this screen, not its main read-out; they come without a call. Compounds called inactive in the main read-out are mostly missing here. Words in brackets tell the shape of the fitted curve; partial curves, single points and poor fits give uncertain potencies.

Assay: qHTS Assay for Lipid Storage Modulators in Drosophila S3 Cells;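 as to cell number change: cells counted by Cell Tracker Red CMTPX staining in the red channel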
Settings: BODIPY lipid droplet fluorescence, 18-24 h; for cell number change: measured here: cell count max response, cells fed with added oleic acid
Procedure, shortened: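 Drosophila S3 cells loaded with oleic acid (400 uM, as added) and compounds at several concentrations; lipid droplets imaged by 488-nm laser-scanning cytometry, 500–530 nm intensity and object ratio to cell channel. Percent activity normalized to 20 uM Triacsin C.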

[1] = measured here: lipid fluorescence (Fed channel) AC50, cells fed with added oleic acid
[2] = measured here: cell number channel AC50, cells fed with added oleic acid

Row | SMILES | cell number change | AC50 [1] | AC50 [2]
1 | Cc1ccccc1Cn1c(C)nc2ccc([N+](=O)[O-])cc2c1=O | -7.77% | 3.66 µM [rising, partial curve] | 
2 | Cc1ccnc(N2CCCC(C(=O)Nc3cccc(C)c3C)C2)n1 (configuration not stated) | 6.41% | 0.58 µM [falling, partial curve] | 
3 | O=C(c1ccccc1)c1nc2ccccc2[nH]c1=O | 19.4% | 29.1 µM [rising, single point] | 
4 | Cc1ccc(C(=O)NCC(=O)OCCCOC(=O)CNC(=O)c2ccc(C)cc2)cc1 | -28.5% |  | 
5 | N/C(Cn1cncn1)=N\NC(=O)C(=O)Nc1cccc(C(F)(F)F)c1 | -0.615% | 29.1 µM [rising, partial curve, poor fit] | 
6 | Cc1cnc(C(=O)OCc2nc3ccsc3c(=O)[nH]2)cn1 | 19.2% | 29.1 µM [rising, single point] | 0.231 µM [rising, full curve, poor fit]
7 | Cc1cccc(NC(=O)c2ccc([N+](=O)[O-])s2)c1C | 4.6% |  | 
8 | CCOc1cc(-c2c(C#N)c(=O)[nH]c3c2c(C)nn3-c2ccc(F)cc2)ccc1O |  |  | 0.461 µM [falling, single point]
9 | O=C(NCCCc1ccccc1)c1ccncc1 | -3.47% |  | 
10 | Cc1ccc(-n2nc(C)c(C3C(C#N)=C(N)OC4=C3C(=O)CCC4)c2Cl)cc1 (configuration not stated) | -12.1% | 1.84 µM [rising, single point] | 
11 | COc1ccc(CNC(=O)Cn2nc(C(F)(F)F)c(Br)c2C)cc1 |  | 0.58 µM [rising, single point] | 
12 | O=C(CCN1CCN(Cc2ccccc2)CC1)Nc1cccc(Cl)c1 | -14.6% | 0.461 µM [rising, full curve, poor fit] | 
13 | CCCCCCC(=O)N1C/C=C\C(c2ccc(OC)cc2)N(Cc2ccc(F)cc2)C(=O)[C@H]1Cc1ccccc1 (some centres not stated) | -55.8% | 29.1 µM [falling, single point] | 29.1 µM [falling, single point]
14 | Cc1ccc(NC(=O)CSc2nn(-c3ccccc3)c(=S)s2)cc1S(=O)(=O)N(C)C | -12.6% | 3.26 µM [falling, single point] | 
15 | O=C(CN1CCN(c2cccc(C(F)(F)F)c2)CC1)NCc1ccccc1 | -22.9% | 0.116 µM [falling, full curve, poor fit] | 
16 | CS(=O)(=O)Nc1ccccc1C(=O)Nc1ccccc1C(=O)N1CCCC1 | -15.3% |  | 
17 | CC(=O)N1CC[n+]2c(-c3ccc(Cl)cc3)csc21 |  | 7.31 µM [rising, partial curve] | 
18 | Cc1csc(NC(=O)c2cc3c(C)nn(Cc4ccccc4Cl)c3s2)n1 | -1.38% | 0.231 µM [rising, partial curve] | 0.0517 µM [rising, partial curve]
19 | O=C(NCCCn1ccnc1)c1ccc(-c2ccccc2)cc1 | -1.3% | 0.092 µM [rising, full curve] | 
20 | Cn1c(SCC(=O)c2ccc(F)cc2)nc2cccnc21 | 2.16% |  | 
21 | CCC1(C)NC(=O)N(CC(=O)N2CCN(c3cccc(Cl)c3)CC2)C1=O (configuration not stated) | -23% | 0.731 µM [falling, full curve, poor fit] | 

Row | SMILES | cell number change | AC50 [1] | AC50 [2]
22 | CSc1c(CC(=O)Nc2ccccc2)n(Cc2ccccc2)c2ccccc12 | -2.52% |  | 3.26 µM [falling, partial curve]
23 | O=C(CN1CCOCC1)N/N=C/c1ccc(-c2cccc(Cl)c2Cl)o1 |  | 1.03 µM [rising, partial curve] | 
24 | CC1CCN(Cc2nnc(-c3cccc(Br)c3)o2)CC1 | -7.91% | 29.1 µM [falling, single point] | 
25 | COc1cccc(Cn2cnc3c(N)c(C)c(C)cc32)c1 | 99.9% | 25.9 µM [rising, single point] | 3.26 µM [rising, full curve]
26 | COc1ccc(C(=O)Nc2ccc(S(=O)(=O)N3CCCCC3)cc2)cc1 | 0.592% | 11.6 µM [falling, single point] | 
27 | COc1ccc(NC(=O)c2cc(CN3C(=O)c4ccccc4C3=O)ccc2OC)cn1 | 70.2% | 29.1 µM [rising, single point] | 0.259 µM [rising, full curve, poor fit]
28 | CN(C)N=Nc1nc2c([nH]1)c(=O)n(C)c(=O)n2C |  | 29.1 µM [rising, single point] | 
29 | CCCS(=O)(=O)c1c(S(=O)(=O)CCC)c2c(C(N)=O)cccn2c1C(=O)c1ccc(F)cc1 | 25.9% |  | 
30 | NC(=O)/C(=C/c1ccco1)NC(=O)/C=C/c1ccccc1 |  | 20.6 µM [rising, partial curve, poor fit] | 
31 | CC(C)COC(=O)c1ccc(N2C(=O)c3ccccc3C2=O)cc1 | 1.02% | 0.0259 µM [rising, full curve, poor fit] | 
32 | CC(C)CCOc1ccc(C(=O)NCCC(=O)N2CCOCC2)cc1 | 28.6% | 16.4 µM [rising, single point] | 
33 | Oc1c(Cl)cc(CN2CCOCC2)c2cccnc12 | -57.7% | 32.6 µM [falling, single point] | 23.1 µM [falling, partial curve, poor fit]
34 | CC(=O)N1CCN(c2ccc(NC(=O)c3cc(Cl)ccc3Cl)cc2)CC1 | 1.17% | 14.6 µM [rising, single point] | 
35 | COc1ccccc1C(=O)CC(=O)c1ccccc1 | -17.1% | 32.6 µM [falling, single point] | 
36 | Cc1c(C#N)c(N)nc2c3c(sc12)NC(=O)CC3c1ccc(Cl)cc1 (configuration not stated) | -51.9% | 29.1 µM [falling, single point] | 29.1 µM [falling, single point]
37 | CC(C)(C)c1cc(C(=O)CCN2CCOCC2)cc(C(C)(C)C)c1O |  | 6.51 µM [falling, full curve] | 
38 | S=C1NCN(Cc2ccco2)CN1 | -15.6% | 2.59 µM [falling, full curve] | 
39 | CCOC(=O)C1CCCN(C(=O)c2cccc(S(=O)(=O)N(Cc3ccccc3)c3ccccc3OC)c2)C1 (configuration not stated) | -26.4% | 18.4 µM [falling, single point] | 
40 | COc1ccccc1NC(=O)CSc1nnnn1C1CCCCC1 | -2.56% | 5.17 µM [rising, single point] | 
41 | O=[N+]([O-])c1ccc(C2CCCC/C2=N\OCc2cccc(F)c2)c([N+](=O)[O-])c1 (configuration not stated) | 12.5% |  | 
42 | Nc1c(NC2CCCCC2)c2ccccc2oc1=O | -6.29% |  | 

Exported with each value named: part of the list above
COc1ccc(NC(=O)c2cc(CN3C(=O)c4ccccc4C3=O)ccc2OC)cn1
  cell number change: 70.2%; AC50 [1]: 29.1 µM [rising, single point]; AC50 [2]: 0.259 µM [rising, full curve, poor fit]
CC(=O)N1CCN(c2ccc(NC(=O)c3cc(Cl)ccc3Cl)cc2)CC1
  cell number change: 1.17%; AC50 [1]: 14.6 µM [rising, single point]
COc1ccccc1NC(=O)CSc1nnnn1C1CCCCC1
  cell number change: -2.56%; AC50 [1]: 5.17 µM [rising, single point]
Nc1c(NC2CCCCC2)c2ccccc2oc1=O
  cell number change: -6.29%

More structures:

Row | SMILES | cell number change | AC50 [1] | AC50 [2]
43 | Oc1c(Br)cc(Br)cc1CNc1cccc2cccnc12 | -1.1% | 20.6 µM [rising, partial curve] | 
44 | CCCOc1ccc(-c2nnc(N)s2)cc1 |  | 1.03 µM [rising, partial curve] | 0.92 µM [rising, partial curve]
45 | Cc1ccc(N/C=C(/C#N)c2ccsc2)cc1C | 31.7% |  | 9.2 µM [rising, partial curve, poor fit]
46 | O=C(c1cn2ccccc2n1)N1CCCC(Nc2ccc(F)c(F)c2)C1 (configuration not stated) | 20.5% | 23.1 µM [rising, single point] | 
47 | CC1CCCCC12NC(=O)N(CC(=O)NCc1ccco1)C2=O (configuration not stated) | 11% | 0.00411 µM [rising, full curve, poor fit] | 
48 | Cc1ccccc1CN(C)CC(=O)Nc1ccccc1Oc1ccccc1 | 6.71% | 32.6 µM [rising, single point] | 
49 | O=c1[nH]c(=O)c2nc3c4ccccc4c4ccccc4c3nc2[nH]1 | -62.6% | 29.1 µM [falling, single point] | 29.1 µM [falling, single point]
50 | Cc1ccc(-c2nnn(CC(=O)Nc3ccccc3-c3ccccc3)n2)c(-n2cnnn2)c1 | -21.6% |  | 
51 | Cc1c(C(=O)O)sc2nc(/C=C/c3cccc(F)c3)[nH]c(=O)c12 | -0.709% | 6.51 µM [falling, single point] | 
52 | NC(=O)SCC(=O)Nc1cccc(Cl)c1 | 15% | 6.51 µM [falling, single point] | 
53 | C/C(=N/NC(=O)c1ccc(Cn2cccn2)o1)c1cccc(NC(=O)c2ccncc2)c1 | -21.5% | 0.411 µM [rising, full curve] | 
54 | Nc1nc(Cl)c2ncn(C3OC(CO)C(O)C3O)c2n1 (configuration not stated) | 1.58% | 29.1 µM [falling, single point] | 
55 | CC1CC(=O)Nc2ccccc2N1S(=O)(=O)c1ccc(Cl)cc1 (configuration not stated) | -4.33% | 0.731 µM [falling, full curve] | 
56 | CN(C)S(=O)(=O)N(CCN1CCOCC1)Cc1ccccc1F |  | 29.1 µM [falling, single point] | 
57 | O=C1CCC(=O)N1c1ccc(S(=O)(=O)N2CCCC2)cc1 | -45.8% | 32.6 µM [falling, single point] | 23.1 µM [falling, single point]
58 | Cc1sc(-c2ccncc2)nc1OC(=O)c1cc(Cl)cc(Cl)c1 | -55% | 20.6 µM [falling, single point] | 2.59 µM [falling, full curve]
59 | C=CCN1C=C/C(=C\C=C(C#N)C#N)c2ccccc21 | -20.4% | 3.66 µM [falling, full curve] | 
60 | CCOc1cc(/C=C(\C#N)C(N)=O)ccc1OS(=O)(=O)c1ccccc1 | -4.76% | 0.731 µM [falling, partial curve] | 
61 | Cc1cccc(N2CCN(C(=O)NC(C)c3ccc(F)c(F)c3)CC2)c1C (configuration not stated) | -9.72% | 29.1 µM [falling, single point] | 
62 | CCc1ccc(S(=O)(=O)NCc2cn3cccc(C)c3n2)s1 | -22.8% | 23.1 µM [falling, partial curve, poor fit] | 
